From patent US10562947B2, “Compositions and methods for preventing or treating diseases, conditions or processes characterized by aberrant fibroblast proliferation and extracellular matrix deposition” (MOERAE MATRIX, INC., priority 2011, dated 2020)
Some of these results come from one statement about several compounds together.

Chains of the proteins cited; added tags and fusions are not shown. Lines headed by an entry give the natural chain unless they say otherwise; changes in a name come on top.
UniProt Q14012: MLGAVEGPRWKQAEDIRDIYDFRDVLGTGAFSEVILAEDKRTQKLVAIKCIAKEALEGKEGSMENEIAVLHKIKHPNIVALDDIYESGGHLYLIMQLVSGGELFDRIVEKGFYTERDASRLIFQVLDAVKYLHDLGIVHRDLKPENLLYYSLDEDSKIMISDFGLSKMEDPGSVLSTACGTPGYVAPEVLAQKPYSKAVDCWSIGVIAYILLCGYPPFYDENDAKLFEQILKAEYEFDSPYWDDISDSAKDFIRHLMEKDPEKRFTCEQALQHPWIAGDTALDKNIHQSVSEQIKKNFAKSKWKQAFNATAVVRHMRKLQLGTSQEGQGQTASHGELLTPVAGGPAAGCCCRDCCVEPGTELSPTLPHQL
UniProt P49137, whole entry: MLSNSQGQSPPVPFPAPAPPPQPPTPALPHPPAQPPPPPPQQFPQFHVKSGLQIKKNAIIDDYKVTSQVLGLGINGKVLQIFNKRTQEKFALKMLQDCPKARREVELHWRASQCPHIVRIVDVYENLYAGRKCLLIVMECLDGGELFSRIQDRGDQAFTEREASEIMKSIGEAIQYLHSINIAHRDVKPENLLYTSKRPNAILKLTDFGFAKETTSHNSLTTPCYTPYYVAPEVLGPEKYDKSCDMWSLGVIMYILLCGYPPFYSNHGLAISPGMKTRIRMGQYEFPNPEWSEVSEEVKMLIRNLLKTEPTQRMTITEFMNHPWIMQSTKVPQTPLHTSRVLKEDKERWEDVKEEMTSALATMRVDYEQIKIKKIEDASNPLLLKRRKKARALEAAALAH
UniProt Q16644, whole entry: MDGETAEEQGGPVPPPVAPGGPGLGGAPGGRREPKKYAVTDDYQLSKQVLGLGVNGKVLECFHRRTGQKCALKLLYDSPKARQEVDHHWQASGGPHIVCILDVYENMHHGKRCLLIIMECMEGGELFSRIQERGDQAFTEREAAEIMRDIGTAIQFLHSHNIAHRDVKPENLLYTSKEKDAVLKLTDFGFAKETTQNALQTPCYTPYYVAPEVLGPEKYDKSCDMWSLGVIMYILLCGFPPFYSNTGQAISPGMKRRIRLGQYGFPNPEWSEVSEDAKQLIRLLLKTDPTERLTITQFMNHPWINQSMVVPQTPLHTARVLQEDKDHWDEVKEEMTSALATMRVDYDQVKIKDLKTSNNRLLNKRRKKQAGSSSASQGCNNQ

Assays:
Test in all cases: Kinase Profiling Assay
Type in all cases: biochemical
Settings in all cases: at 100 μM, in vitro
CaMKI(h) = CaMKI(h) (Homo sapiens, UniProt Q14012)
Experimental: (§1) Every kinase activity measurement was conducted in duplicate.
(§2) In addition to determining the IC50 of the compound, the specificity of MK2 inhibitory peptides was assessed by examining activities of all 266 human kinases available for testing in the Millipore kinase profiling service (Table 1).

MAPKAP-K2(h) = MAPKAP-K2(h) (Homo sapiens, UniProt P49137)
Experimental: as §1, §2

MAPKAP-K3(h) = MAPKAP-K3(h) (Homo sapiens, UniProt Q16644)
Experimental: as §1, §2

TrkB(h) = TrkB(h) (Homo sapiens, UniProt Q16620)
Experimental: as §1, §2

FAKLAARLYRKALARQLGVAA [MMI-0300]
more than 65%: inhibition of kinase activity of CaMKI (CaMKI(h)) | inhibition of kinase activity of MK2 (MAPKAP-K2(h)) | inhibition of kinase activity of MK3 (MAPKAP-K3(h)) | inhibition of kinase activity of TrkB (TrkB(h))

YARAAARQARAKALNRQLGVA (Mammalian) [MMI-0200]
more than 65%: inhibition of kinase activity of CaMKI (CaMKI(h)) | inhibition of kinase activity of MK2 (MAPKAP-K2(h)) | inhibition of kinase activity of MK3 (MAPKAP-K3(h)) | inhibition of kinase activity of TrkB (TrkB(h))

KAFAKLAARLYRKALARQLGVAA [MMI-0400]
more than 65%: inhibition of kinase activity of CaMKI (CaMKI(h)) | inhibition of kinase activity of MK2 (MAPKAP-K2(h)) | inhibition of kinase activity of MK3 (MAPKAP-K3(h)) | inhibition of kinase activity of TrkB (TrkB(h))

HRRIKAWLKKIKALARQLGVAA (Mammalian) [MMI-0500]
more than 65%: inhibition of kinase activity of MK2 (MAPKAP-K2(h)) | inhibition of kinase activity of MK3 (MAPKAP-K3(h)) | inhibition of kinase activity of TrkB (TrkB(h))
